Consider one compound from patent publication US10173991B2, “Sulfone amide linked benzothiazole inhibitors of endothelial lipase” (BRISTOL-MYERS SQUIBB COMPANY, priority 2014, dated 2019).

Protein sequences, listed by entry. Tags and fused reporters are not part of them. Residues count along the entry.
UniProt Q9Y5X9, 21-500 limits assumed: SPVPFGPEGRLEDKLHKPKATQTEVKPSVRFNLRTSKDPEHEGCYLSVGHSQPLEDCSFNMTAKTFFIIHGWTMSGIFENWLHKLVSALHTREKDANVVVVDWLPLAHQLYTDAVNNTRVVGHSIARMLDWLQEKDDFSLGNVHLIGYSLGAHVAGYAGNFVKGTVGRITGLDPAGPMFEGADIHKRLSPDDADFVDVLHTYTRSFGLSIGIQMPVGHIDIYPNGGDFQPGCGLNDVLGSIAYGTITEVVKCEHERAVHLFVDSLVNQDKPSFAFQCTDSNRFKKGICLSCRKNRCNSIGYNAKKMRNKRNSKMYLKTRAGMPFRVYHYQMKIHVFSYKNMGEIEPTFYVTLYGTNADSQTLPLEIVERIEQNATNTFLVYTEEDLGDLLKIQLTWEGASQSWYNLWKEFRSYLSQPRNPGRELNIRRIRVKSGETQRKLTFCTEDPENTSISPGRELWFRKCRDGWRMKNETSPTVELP

SMILES strings stand for the structures. The match of structure and compound is tentative.

The target of this assay is Endothelial lipase (EL) (Homo sapiens (Human), UniProt Q9Y5X9). The experiment in a line: Endothelial lipase (EL) enzymatic assay with fluorescent substrate A10070 in DMPG vesicles. As to conditions: read-out: EL IC50.

As a reminder, the IC50 is the midpoint of a concentration-inhibition curve. Take `CS(=O)(=O)C(C(=O)NCC(=O)NC1CC1)c1nc2cc(OC(F)(F)F)c(-c3ccc(F)nc3)cc2s1` (stereo not shown): the concentration for half-maximal inhibition (IC50) was 7 nM.
